Literature values, collected in patent US20020151526A1, “Bile-acid prodrugs of L-dopa and their use in the sustained treatment of parkinsonism” (priority 2000, published 2002).
Some entries share one result that the patent states for a list of compounds.

Conditions: adjunct to levodopa-carbidopa regimens; cited from earlier work

Increase in half-life and area-under-the curve (AUC) of levodopa, up to 50%:
CCN(CC)C(=O)/C(C#N)=C/c1cc(O)c(O)c([N+](=O)[O-])c1 [entacapone]
CC(=O)C(=Cc1cc(O)c(O)c([N+](=O)[O-])c1)C(C)=O [nitecapone]
Cc1ccc(C(=O)c2cc(O)c(O)c([N+](=O)[O-])c2)cc1 [tolcapone]
